# Article PMC6711944
# How the values were obtained:
# canine ISG15 (canine) [1] = test: SEC; both purified
# canine ISG15 (canine) [2] = test: crystal structure; crystal structures of NS1B-NTR in complex with mISG15, cISG15 or bISG15; both purified
# cISG15-L16A (canine) = test: ITC; isothermal titration calorimetry of NS1B-NTR and ISG15 proteins; which was titrated and the conditions are not told in the text shown; both purified
substance,measurement,setting,value
"NS1B-NTR, containing the 103 N-terminal residues of NS1B (influenza B virus NS1 protein) (from UniProt P03502 1-103) (domain or fragment)",binding,canine ISG15 (canine) [1],binds
same,binding,canine ISG15 (canine) [2],binds
same,binding,cISG15-L16A (canine),no binding

# No constants are given. Whether binding was seen depends on the method and setting. For part of these data: A result given as binding can be weak or reduced; the word gives no strength.
